This assay has as its system L1210 leukemia ip in BDF1 mice, survival T/C. Nature of the assay: NCI In Vivo Anticancer Drug Screen. Data for tumor model L1210 Leukemia (intraperitoneal) in B6D2F1 (BDF1) mice. The following applies: T/C endpoint: mean survival time, higher T/C = longer survival.
The mark [1] stands for this setting: dose: 100.0 mg/kg/injection, schedule: Q01DX009 (ip), vehicle: saline.
Setting [2] is: dose: 400.0 mg/kg/injection, schedule: Q04DX003 (ip), vehicle: saline.
Where [3] appears, read: dose: 400.0 mg/kg/injection, schedule: Q01DX001 (ip), vehicle: saline.
[4] abbreviates: dose: 300.0 mg/kg/injection, schedule: Q01DX001 (ip), vehicle: other.

The list does not hold the whole screen: it gathers tests that were run many times, whatever their T/C, doses with no T/C, and many T/C values between a quarter and a half above the control. Other doses and runs of a compound stand elsewhere. T/C: endpoint of the treated group in % of that of the vehicle group. Some doses have a count of surviving animals in place of a T/C: the source holds a T/C of zero for them, seemingly a mark for toxic or unscored doses. Some doses without a T/C left all or most animals alive at the check, yet need not have been tolerated: survival well below the control is almost never listed, so the zero probably covers shortened survival too. Survivors were counted at the toxicity check, usually on the fifth day, unless a day is given; later deaths do not show. Schedule codes are those of the source, taken here to give the interval after Q, in days (D) or hours (H), and the number of doses after X. Some doses were run more than once; the results are listed from low to high. Some schedule codes hold Z or #, which are not explained here. Where survival is the endpoint, the PubChem record calls one and a half times the control and up active, and a quarter to a half above the control has no call in these data; cut-offs in other NCI protocols can differ.

For the compound `CC(=O)OCc1c[n+]([O-])c(C)c(OC(C)=O)c1COC(C)=O`, the survivor count is 4 of 6 (dose: 25.0 mg/kg/injection, schedule: Q01DX009 (ip), vehicle: saline); 0 of 6 (dose: 50.0 mg/kg/injection, schedule: Q01DX009 (ip), vehicle: saline); 0 of 6 under setting [1]; 4 of 6 and 5 of 6 (dose: 100.0 mg/kg/injection, schedule: Q04DX003 (ip), vehicle: saline); 0 of 6 (dose: 200.0 mg/kg/injection, schedule: Q04DX003 (ip), vehicle: saline); 0 of 6 under setting [2].

As for `O=NN(CC(F)(F)F)C(=O)NCC(F)(F)F`, the survivor count was 0 of 6 (dose: 750.0 mg/kg/injection, schedule: Q01DX001 (ip), vehicle: other); 0 of 6 (dose: 1000.0 mg/kg/injection, schedule: Q01DX001 (ip), vehicle: other); 0 of 6 (dose: 1250.0 mg/kg/injection, schedule: Q01DX001 (ip), vehicle: other); 0 of 6 (dose: 1500.0 mg/kg/injection, schedule: Q01DX001 (ip), vehicle: other).

Consider `COc1c2c(cc3c1OCO3)[C@@]13CCN(C2)[C@@H]1CC=C[C@H]3O`, for which the survivor count is, setting by setting: (dose: 20.0 mg/kg/injection, schedule: Q01DX001 (ip), vehicle: carboxymethylcellulose (CMC)) 0 of 6; (dose: 40.0 mg/kg/injection, schedule: Q01DX001 (ip), vehicle: carboxymethylcellulose (CMC)) 0 of 6; (dose: 80.0 mg/kg/injection, schedule: Q01DX001 (ip), vehicle: carboxymethylcellulose (CMC)) 0 of 6.

With `CCSC(=O)N1c2ccc(C)cc2C=CC1C#N` (configuration not stated), the survivor count (dose: 400.0 mg/kg/injection, schedule: Q01DX009 (ip), vehicle: saline with Tween-80) was 5 of 6.

Consider `CC(=O)OCC(NC(=O)N(CCCl)N=O)C(OC(C)=O)C(OC(C)=O)C(COC(C)=O)OC(C)=O` (configuration not stated), for which the T/C (dose: 6.0 mg/kg/injection, schedule: Q01DX001 (ip), vehicle: saline + alcohol) was 138 % of control. For the same compound, the survivor count is 10 of 10 (dose: 30.0 mg/kg/injection, schedule: Q01DX001 (ip), vehicle: saline + alcohol); 10 of 10 (dose: 45.0 mg/kg/injection, schedule: Q01DX001 (ip), vehicle: saline + alcohol); 10 of 10 (dose: 67.0 mg/kg/injection, schedule: Q01DX001 (ip), vehicle: saline + alcohol).

Turning to `O=C1CCC(=O)C12CCNCC2`, the survivor count (dose: 400.0 mg/kg/injection, schedule: Q01DX009 (ip), vehicle: saline) is 3 of 6.

Consider `O=C(CI)Nc1ccc(Br)cc1`, for which the survivor count is reported as 2 of 6 (dose: 55.0 mg/kg/injection, schedule: Q01DX009 (ip), vehicle: Klucel (hydroxypropylcellulose) (HPC)) and 0 of 6 (dose: 80.0 mg/kg/injection, schedule: Q01DX009 (ip), vehicle: Klucel (hydroxypropylcellulose) (HPC)).

On to `O=[N+]([O-])c1cc(Cl)c(Cl)cc1NCCCO`, for which the survivor count (dose: 400.0 mg/kg/injection, schedule: Q01DX009 (ip), vehicle: acetone) is 6 of 6.

Turning to `C/C(CC(=O)Nc1ccc(Cc2ccc(Cl)cc2)cc1)=N/Nc1ccc([N+](=O)[O-])cc1[N+](=O)[O-]`, the survivor count under setting [3] is 1 of 4.

In the case of `CCc1c(C)nnn1-c1ccccc1`, where the note is “dose: 300.0 mg/kg/injection, schedule: Q01DX001 (ip), vehicle: saline”, the survivor count is recorded as 3 of 6.

`Cc1[nH]nc(-c2cccnc2)c1N=NN1CCC(C(N)=O)CC1`: the survivor count is 3 of 6 (dose: 150.0 mg/kg/injection, schedule: Q01DX001 (ip), vehicle: other) and 2 of 6 under setting [4].

As for `CC(/C=N/N/C(N)=N\N)=N\N/C(N)=N/N`, the survivor count reads like this: (dose: 480.0 mg/kg/injection, schedule: Q01DX Z (ip), vehicle: methylcellulose (MC)) 0 of 6; (dose: 600.0 mg/kg/injection, schedule: Q01DX Z (oral), vehicle: methylcellulose (MC)) 0 of 6; (dose: 720.0 mg/kg/injection, schedule: Q01DX Z (oral), vehicle: methylcellulose (MC)) 0 of 6; (dose: 840.0 mg/kg/injection, schedule: Q01DX Z (oral), vehicle: methylcellulose (MC)) 0 of 6; (dose: 3600.0 mg/kg/injection, schedule: Q01DX Z (ip), vehicle: methylcellulose (MC)) 0 of 6.

`CC[n+]1c(C)sc2cc3c(cc21)OCO3`: the survivor count was 0 of 6 (dose: 200.0 mg/kg/injection, schedule: Q01DX009 (ip), vehicle: Klucel (hydroxypropylcellulose) (HPC)); 2 of 6 (dose: 200.0 mg/kg/injection, schedule: Q04DX003 (ip), vehicle: Klucel (hydroxypropylcellulose) (HPC)); 0 of 6 (dose: 400.0 mg/kg/injection, schedule: Q04DX003 (ip), vehicle: Klucel (hydroxypropylcellulose) (HPC)).

For `ClC1=C(Cl)C2(Cl)C3C4CC(C(I)C4I)C3C1(Cl)C2(Cl)Cl` (configuration not stated), the survivor count under setting [4] is 1 of 6.

As for `COc1cc(C(=O)Nc2ccc(NC3=NCCN3)cc2)cc(C(=O)Nc2ccc(NC3=NCCN3)cc2)c1`, the survivor count is on record as 2 of 6 (dose: 15.0 mg/kg/injection, schedule: Q01DX Z (ip), vehicle: methylcellulose (MC)); 0 of 6 (dose: 30.0 mg/kg/injection, schedule: Q01DX Z (ip), vehicle: methylcellulose (MC)); 0 of 6 (dose: 60.0 mg/kg/injection, schedule: Q01DX Z (ip), vehicle: methylcellulose (MC)); 0 of 6 (dose: 120.0 mg/kg/injection, schedule: Q01DX Z (ip), vehicle: methylcellulose (MC)).

As for `COC(=O)c1cn[nH]c1N1CC[N+](CCCl)=N1`, the survivor count under setting [1] is 2 of 6; the survivor count (dose: 200.0 mg/kg/injection, schedule: Q01DX001 (ip), vehicle: saline) is reported as 2 of 6; the survivor count under setting [3] is recorded as 2 of 6.

Consider `COc1ccc(OC)c(C2(O)C=C(C)C(=O)C=C2C)c1` (configuration not stated), for which, where the note is “dose: 75.0 mg/kg/injection, schedule: Q01DX001 (ip), vehicle: Klucel (hydroxypropylcellulose) (HPC)”, the survivor count is given as 6 of 6.

As for `CCCCCCCCCCCCCCn1cnc2c(N)ncnc21`, the survivor count (dose: 200.0 mg/kg/injection, schedule: Q01DX005 (ip), vehicle: other) is on record as 2 of 6.

As to `CCCCCCC1=NC(C)(C)CO1`, the survivor count under setting [2] was 0 of 6.

`N#CCC(C#N)C1C=CCC1` (configuration not stated): the survivor count by setting is: (dose: 20.0 mg/kg/injection, schedule: Q01DX001 (ip), vehicle: saline) 2 of 6; (dose: 25.0 mg/kg/injection, schedule: Q04DX003 (ip), vehicle: saline with Tween-80) 0 of 6; (dose: 40.0 mg/kg/injection, schedule: Q01DX001 (ip), vehicle: saline) 0 of 6; (dose: 50.0 mg/kg/injection, schedule: Q04DX003 (ip), vehicle: saline with Tween-80) 0 of 6; (dose: 80.0 mg/kg/injection, schedule: Q01DX001 (ip), vehicle: saline) 0 of 6.

Regarding `NC(CSS(=O)(=O)O)=NCC12CC3CC(CC(C3)C1)C2`, the survivor count reads like this: (dose: 50.0 mg/kg/injection, schedule: Q04DX002 (ip), vehicle: Klucel (hydroxypropylcellulose) (HPC)) 0 of 3; (dose: 100.0 mg/kg/injection, schedule: Q04DX002 (ip), vehicle: Klucel (hydroxypropylcellulose) (HPC)) 2 of 3; (dose: 200.0 mg/kg/injection, schedule: Q04DX002 (ip), vehicle: Klucel (hydroxypropylcellulose) (HPC)) 3 of 3; (dose: 400.0 mg/kg/injection, schedule: Q04DX002 (ip), vehicle: Klucel (hydroxypropylcellulose) (HPC)) 0 of 3.

Regarding `CC(C)(C)COC(=O)C(C)(C)CC(C)(C)C`, under setting [3], the T/C was 148 % of control.

On to `CCC1(c2ccccc2)CCN(C)C1` (configuration not stated), for which the survivor count (dose: 150.0 mg/kg/injection, schedule: Q01DX001 (ip), vehicle: carboxymethylcellulose (CMC)) is on record as 0 of 6 and the survivor count (dose: 300.0 mg/kg/injection, schedule: Q01DX001 (ip), vehicle: carboxymethylcellulose (CMC)) is 0 of 6.

Values taken from PubChem BioAssay AID248 (DTP/NCI, 2004).
